Measurements: paper PMC11678445
Results are given in words; binding and its absence hold for the method and conditions named. In cells and extracts the contact can be indirect.

Protein sequences, listed by entry. Tags and fused reporters are not part of them. Lines headed by an entry give the natural chain unless they say otherwise; changes in a name come on top.
UniProt Q5JTV8: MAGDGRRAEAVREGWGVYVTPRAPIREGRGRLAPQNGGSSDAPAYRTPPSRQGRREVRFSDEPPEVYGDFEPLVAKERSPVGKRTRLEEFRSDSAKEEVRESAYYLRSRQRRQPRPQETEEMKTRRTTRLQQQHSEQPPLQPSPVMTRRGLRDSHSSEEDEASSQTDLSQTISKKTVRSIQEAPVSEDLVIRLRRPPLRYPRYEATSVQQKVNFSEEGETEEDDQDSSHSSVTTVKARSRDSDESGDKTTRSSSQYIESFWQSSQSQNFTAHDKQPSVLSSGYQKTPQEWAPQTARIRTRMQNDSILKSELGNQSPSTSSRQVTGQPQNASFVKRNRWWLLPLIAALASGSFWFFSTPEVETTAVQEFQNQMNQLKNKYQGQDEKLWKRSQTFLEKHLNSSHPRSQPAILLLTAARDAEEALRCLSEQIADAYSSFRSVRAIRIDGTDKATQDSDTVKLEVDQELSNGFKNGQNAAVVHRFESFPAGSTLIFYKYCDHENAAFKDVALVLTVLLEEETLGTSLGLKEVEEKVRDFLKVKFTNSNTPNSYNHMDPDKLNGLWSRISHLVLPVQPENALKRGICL
UniProt P12956: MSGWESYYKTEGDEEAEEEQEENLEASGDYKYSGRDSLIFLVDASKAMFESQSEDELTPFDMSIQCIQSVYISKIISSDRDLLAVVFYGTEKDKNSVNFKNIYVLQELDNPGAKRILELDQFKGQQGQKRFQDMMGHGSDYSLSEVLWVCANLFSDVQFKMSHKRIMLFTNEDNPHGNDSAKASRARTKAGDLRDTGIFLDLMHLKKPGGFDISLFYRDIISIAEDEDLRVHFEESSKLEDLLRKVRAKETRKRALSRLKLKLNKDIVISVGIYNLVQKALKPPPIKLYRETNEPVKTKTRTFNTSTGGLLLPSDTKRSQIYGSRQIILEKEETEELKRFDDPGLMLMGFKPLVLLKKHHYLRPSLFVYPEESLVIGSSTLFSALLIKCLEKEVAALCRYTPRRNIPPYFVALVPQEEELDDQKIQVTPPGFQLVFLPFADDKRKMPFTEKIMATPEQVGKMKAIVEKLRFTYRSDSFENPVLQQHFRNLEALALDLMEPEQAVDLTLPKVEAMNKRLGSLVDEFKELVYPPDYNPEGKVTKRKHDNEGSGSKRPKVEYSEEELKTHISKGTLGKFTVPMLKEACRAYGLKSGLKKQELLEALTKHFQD

Target: LAP1 E482A (mutant LAP1 of patient-derived fibroblasts) (human (endogenous in skin fibroblasts)) (UniProt Q5JTV8)
Assay: co-IP; endogenous LAP1 immunoprecipitated from fibroblast whole cell lysates (control or LAP1 E482A; 2000 µg protein, 4% CHAPS lysis buffer, 50 mM Tris-HCl pH 8, 120 mM NaCl) with anti-LAP1 antibody cross-linked to Dynabeads Protein G, 4 °C overnight; rabbit IgG control; immunoblotting for LAP1, Ku70, emerin and H2AX

- binding: no binding
Substance: Ku70 (from UniProt P12956 1-609)
